Test results as given in PMC11642917.
Results are given in words; binding and its absence hold for the method and conditions named. In cells and extracts the contact can be indirect. These calls come from enrichment with a bait or labelling near it, and not all partners need be listed.

By UniProt entry, the sequences of proteins in these tests, tags left out.
UniProt Q17551: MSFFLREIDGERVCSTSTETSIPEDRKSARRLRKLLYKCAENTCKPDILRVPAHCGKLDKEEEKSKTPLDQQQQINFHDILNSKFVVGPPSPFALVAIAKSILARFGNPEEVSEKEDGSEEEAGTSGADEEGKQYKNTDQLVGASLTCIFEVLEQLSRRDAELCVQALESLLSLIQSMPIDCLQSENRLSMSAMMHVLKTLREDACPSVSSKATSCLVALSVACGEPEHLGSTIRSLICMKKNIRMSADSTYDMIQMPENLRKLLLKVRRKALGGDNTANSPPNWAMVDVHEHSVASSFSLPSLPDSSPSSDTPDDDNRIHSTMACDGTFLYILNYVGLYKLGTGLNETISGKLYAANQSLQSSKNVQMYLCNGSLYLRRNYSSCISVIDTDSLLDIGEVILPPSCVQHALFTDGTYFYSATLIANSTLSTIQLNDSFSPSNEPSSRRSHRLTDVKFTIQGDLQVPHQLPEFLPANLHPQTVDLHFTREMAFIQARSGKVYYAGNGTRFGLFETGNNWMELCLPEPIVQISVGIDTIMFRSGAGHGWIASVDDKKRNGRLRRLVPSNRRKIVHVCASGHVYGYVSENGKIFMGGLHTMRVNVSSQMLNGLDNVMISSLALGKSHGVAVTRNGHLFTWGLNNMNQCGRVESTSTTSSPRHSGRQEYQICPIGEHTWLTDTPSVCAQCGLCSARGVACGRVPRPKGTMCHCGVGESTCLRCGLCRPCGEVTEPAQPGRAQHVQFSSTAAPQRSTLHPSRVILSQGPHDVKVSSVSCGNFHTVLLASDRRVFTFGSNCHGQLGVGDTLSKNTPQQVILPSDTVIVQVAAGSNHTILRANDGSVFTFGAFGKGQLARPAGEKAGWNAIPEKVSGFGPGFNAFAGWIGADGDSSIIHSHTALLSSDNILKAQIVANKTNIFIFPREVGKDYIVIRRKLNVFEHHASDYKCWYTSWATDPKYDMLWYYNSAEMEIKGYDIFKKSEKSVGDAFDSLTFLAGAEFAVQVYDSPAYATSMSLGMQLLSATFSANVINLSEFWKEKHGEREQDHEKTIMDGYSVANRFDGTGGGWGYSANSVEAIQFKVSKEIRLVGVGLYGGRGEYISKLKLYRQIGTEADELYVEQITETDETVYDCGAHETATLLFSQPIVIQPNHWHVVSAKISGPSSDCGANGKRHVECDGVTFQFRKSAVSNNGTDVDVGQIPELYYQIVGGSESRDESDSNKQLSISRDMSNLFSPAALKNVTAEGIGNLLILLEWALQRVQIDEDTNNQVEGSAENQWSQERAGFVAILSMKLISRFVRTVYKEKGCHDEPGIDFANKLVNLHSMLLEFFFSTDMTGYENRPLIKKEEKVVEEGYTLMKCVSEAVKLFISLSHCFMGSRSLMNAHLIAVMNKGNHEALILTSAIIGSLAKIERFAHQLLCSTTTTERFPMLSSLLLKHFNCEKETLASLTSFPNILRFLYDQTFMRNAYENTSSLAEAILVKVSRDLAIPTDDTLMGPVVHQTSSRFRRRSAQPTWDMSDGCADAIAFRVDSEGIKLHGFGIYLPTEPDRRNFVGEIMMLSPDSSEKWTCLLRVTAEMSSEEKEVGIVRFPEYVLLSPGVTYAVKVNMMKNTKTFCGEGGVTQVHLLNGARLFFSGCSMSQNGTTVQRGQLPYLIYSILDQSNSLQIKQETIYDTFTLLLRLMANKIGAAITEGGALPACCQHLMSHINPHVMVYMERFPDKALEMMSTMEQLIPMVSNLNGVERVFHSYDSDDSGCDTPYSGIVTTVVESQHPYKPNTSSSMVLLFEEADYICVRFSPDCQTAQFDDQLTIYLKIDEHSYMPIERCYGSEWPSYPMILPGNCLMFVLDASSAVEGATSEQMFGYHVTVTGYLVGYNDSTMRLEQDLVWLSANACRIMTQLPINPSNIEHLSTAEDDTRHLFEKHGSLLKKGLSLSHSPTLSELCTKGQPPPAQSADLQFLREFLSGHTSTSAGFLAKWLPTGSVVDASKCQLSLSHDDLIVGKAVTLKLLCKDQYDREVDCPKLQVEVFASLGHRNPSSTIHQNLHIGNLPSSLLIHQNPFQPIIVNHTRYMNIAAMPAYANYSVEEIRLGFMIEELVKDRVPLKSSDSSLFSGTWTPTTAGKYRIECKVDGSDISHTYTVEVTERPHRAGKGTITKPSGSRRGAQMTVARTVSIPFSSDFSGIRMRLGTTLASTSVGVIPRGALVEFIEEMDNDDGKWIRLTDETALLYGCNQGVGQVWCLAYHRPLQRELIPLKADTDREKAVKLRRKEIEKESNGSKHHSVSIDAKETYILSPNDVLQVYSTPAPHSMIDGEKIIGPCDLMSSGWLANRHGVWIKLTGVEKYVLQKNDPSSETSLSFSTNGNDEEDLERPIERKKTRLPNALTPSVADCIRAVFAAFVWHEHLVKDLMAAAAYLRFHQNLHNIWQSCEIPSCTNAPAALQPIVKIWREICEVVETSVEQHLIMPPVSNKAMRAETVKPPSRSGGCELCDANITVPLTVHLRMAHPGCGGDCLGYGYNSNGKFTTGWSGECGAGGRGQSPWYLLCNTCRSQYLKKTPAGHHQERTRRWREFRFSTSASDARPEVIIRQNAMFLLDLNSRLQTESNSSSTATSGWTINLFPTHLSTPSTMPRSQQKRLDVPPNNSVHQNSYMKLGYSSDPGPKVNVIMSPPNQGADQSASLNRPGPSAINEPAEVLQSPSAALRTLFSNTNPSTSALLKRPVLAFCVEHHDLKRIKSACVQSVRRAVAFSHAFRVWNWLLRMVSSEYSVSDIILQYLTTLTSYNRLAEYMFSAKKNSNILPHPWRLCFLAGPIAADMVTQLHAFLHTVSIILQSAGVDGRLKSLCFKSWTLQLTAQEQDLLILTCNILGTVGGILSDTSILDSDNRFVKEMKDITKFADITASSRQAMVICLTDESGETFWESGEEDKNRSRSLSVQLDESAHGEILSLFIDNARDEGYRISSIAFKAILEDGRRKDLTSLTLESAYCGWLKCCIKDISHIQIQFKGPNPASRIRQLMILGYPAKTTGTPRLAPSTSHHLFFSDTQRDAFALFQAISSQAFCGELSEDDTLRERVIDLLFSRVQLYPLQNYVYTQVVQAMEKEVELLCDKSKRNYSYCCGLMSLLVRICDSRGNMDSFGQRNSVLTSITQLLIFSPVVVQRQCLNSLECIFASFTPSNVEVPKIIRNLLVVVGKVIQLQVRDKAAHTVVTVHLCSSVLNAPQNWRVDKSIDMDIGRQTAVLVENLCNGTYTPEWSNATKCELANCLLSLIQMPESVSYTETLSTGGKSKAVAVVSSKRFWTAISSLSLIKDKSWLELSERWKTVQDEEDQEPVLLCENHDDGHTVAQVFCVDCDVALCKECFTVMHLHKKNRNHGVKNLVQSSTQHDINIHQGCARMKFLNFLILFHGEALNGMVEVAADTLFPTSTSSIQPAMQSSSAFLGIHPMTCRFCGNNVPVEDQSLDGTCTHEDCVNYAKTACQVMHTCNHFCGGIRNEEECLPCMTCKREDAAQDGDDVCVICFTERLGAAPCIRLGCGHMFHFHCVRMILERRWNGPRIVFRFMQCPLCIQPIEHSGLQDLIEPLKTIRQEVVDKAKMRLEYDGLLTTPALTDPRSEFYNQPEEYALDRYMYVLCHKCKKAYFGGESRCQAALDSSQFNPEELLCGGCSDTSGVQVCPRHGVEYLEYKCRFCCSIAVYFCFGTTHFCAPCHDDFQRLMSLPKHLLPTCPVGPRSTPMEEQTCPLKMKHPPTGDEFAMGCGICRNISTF
UniProt Q22038: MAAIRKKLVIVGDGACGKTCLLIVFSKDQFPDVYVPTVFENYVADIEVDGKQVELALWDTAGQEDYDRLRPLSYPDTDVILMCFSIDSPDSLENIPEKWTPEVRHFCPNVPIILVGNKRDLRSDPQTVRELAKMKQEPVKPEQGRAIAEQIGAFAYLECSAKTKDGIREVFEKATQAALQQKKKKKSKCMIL
UniProt P90980: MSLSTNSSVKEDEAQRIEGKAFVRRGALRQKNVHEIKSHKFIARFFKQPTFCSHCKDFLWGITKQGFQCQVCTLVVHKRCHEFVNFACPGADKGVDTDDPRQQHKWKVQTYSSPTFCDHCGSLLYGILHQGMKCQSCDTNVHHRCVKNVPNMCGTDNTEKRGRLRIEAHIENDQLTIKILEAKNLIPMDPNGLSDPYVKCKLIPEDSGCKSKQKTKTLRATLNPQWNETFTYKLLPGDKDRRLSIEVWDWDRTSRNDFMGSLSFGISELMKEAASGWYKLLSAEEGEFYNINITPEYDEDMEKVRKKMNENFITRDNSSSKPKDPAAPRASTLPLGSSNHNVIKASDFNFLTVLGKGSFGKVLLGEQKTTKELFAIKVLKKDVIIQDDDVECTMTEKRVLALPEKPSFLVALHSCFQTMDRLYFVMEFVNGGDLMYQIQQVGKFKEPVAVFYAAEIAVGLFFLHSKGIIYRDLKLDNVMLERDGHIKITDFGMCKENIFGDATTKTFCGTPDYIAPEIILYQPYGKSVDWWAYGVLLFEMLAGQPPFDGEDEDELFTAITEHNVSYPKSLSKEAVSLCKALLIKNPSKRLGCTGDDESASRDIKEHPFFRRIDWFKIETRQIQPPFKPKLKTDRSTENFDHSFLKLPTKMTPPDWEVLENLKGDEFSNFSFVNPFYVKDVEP
UniProt P91910: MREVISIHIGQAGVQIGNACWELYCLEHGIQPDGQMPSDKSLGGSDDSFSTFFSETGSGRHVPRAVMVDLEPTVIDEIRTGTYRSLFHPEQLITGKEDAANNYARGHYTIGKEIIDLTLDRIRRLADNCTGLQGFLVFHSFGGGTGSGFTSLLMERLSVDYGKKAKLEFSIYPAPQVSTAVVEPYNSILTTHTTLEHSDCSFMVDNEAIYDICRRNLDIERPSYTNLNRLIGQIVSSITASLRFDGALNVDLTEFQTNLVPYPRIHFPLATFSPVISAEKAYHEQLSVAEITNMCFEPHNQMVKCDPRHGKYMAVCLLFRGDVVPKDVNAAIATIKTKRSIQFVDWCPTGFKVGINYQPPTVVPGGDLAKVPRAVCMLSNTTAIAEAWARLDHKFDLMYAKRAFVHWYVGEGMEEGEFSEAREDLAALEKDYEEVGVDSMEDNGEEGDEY
UniProt G5EGK8: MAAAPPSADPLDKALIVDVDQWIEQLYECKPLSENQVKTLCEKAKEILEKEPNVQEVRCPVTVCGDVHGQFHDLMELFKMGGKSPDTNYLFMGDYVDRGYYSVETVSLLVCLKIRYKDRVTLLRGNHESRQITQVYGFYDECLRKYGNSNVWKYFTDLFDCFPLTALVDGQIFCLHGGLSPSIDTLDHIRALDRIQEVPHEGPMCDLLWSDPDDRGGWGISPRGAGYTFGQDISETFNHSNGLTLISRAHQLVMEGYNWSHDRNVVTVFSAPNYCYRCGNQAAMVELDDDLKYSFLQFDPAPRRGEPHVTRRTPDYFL
UniProt Q21215: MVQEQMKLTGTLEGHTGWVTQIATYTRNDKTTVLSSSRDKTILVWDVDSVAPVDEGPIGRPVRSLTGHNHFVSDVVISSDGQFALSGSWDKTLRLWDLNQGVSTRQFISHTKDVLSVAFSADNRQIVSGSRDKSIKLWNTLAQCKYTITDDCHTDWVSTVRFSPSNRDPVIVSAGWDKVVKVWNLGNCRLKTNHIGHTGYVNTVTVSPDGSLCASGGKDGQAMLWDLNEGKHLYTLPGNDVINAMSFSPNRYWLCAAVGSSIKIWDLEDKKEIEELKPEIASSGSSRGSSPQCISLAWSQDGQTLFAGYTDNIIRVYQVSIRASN

Molecular target: GS::RPM-1 (C. elegans) (UniProt Q17551)
Assay: affinity purification with mass spectrometry; GS-tagged RPM-1 bait captured on IgG-coupled Dynabeads from whole-animal lysates of mixed-stage C. elegans (80 mg total protein, 500 uL beads, 4°C, 4 hours; various detergent conditions); SDS-PAGE, in-gel trypsin digest, LC-MS/MS; GS::GFP negative control; 7 independent experiments; hit = 1.5x or greater total spectra over GS::GFP

## RHO-1 (from UniProt Q22038 1-192)
  binding: binds

## PKC-2 (from UniProt P90980 1-682)
  binding: binds

## CED-10 (from UniProt Q03206 1-191)
  binding: binds

## MEC-12 (from UniProt P91910 1-450)
  binding: binds

## LET-92 (from UniProt G5EGK8 1-318)
  binding: binds

## RACK-1 (from UniProt Q21215 1-325)
  binding: binds

B1: PAT-2 (protein, UniProt P34446 26-1226)
chain: FNIDTKNVVVHHMAGNYFGYSLDFYHEQKGMPVLVVGAPEAESNNPNLAGIRRPGAVYACSVNRATCREVHVDKMKGNLKKLNGSHLVPIEEKSHQFFGATVRSNDKHDKIVVCAPKYTYFYSKFEVIEPVGTCFYAENGFDNAEEFSSCKQEPARHGRHRLGYGQCGFSAAVPGKKNQNRVFIGAPGVWYWQGAMFSQNIKNQTDRPNTEYGSKEYDHDMMGYSTATGDFDGDGIDDIVAGVPRGNDLHGKLVLYTSKLKMMINLTDEVSTQHGQYCGGSVAVADVNKDGRDDIIMGCPFYTDYGSVKDAKTQERKPQYDVGKVIVMLQTAPGVFGKQIAVVGDDQWGRFGHAVAAAGDLNLDGYNDVIVGAPYAGKNKQGAVYVIHGSKDGVRELPTQKIEGANIGHGNIKSFGFSLTGNEDVDGNGMPDIAVGAWKSGNAAVLLTKPVVTVTGQTEPESALISVEDKNCDVDGKLGKQACKHINTCFKYEGKGDTPNDLEFDLRFNLDDHSPEPRAYFLQKDVKSDRSIKVAQGSKTRDHPSSIEQRVRLEKGRQKCFRHRFFASSTMKDKLSPIHWSVNYTYVESKTGKLRGDKLEPAIDTTVPLSFQNKINIANNCGKDDLCVPDLKVTAVADREKFLLGTQDNTMLINVTVQNGGEDSYETKLYFDVPQGFEYGGIESVGGDGSKSAPACSPTSDEPDSDGKWTFACDLGNPLPANKVVSSVVRVTASSDKPPLAPISINAHVNSSNDEEAHTVADNKVTFTIPVDFKNQLSLNGRSNPEQVDFSMTNKTRVDAFDDNEIGPVVSHLYQISNRGPSEVDSATLDIFWPSFSTEGGHLLYIITEPVVNPPNKGRCRVKQLQNVNPLNLRITNEHVPTEPPVAKTPNEYSREEDDESYEDETTTQSQSTRHQSTQHQTHHQSGPVHVYEKDEEKIRQNTGNWQYVEDKKKKGDYEYIPDDQEYDGDDFEEEDDEDFDRAGSKRVKRNPTPKKKKKGGEHRGEPRSDKARFSDLREAVKLSKEAGGVVDYKGPLSRASVDCNSLRCTHIECDIYDLKEDEFVLVEIFSRLYTNTLVDEKNPGGDISSLALARVTSTKYNLPHKPTLITAVSTNMNAIASEEGRDLPWWLYLLAILIGLAILILLILLLWRCGFFKRNRPPTEHAELRADRQPNAQYADSQSRYTSQDQYNQGRHGQML
  binding: binds

B2: PAT-4 (protein, UniProt Q9TZC4 1-466)
chain: MSLSTHYHAHKPNVPIIMEDVFGWVREGNAFQVRVWLDDHEHDLNVGDDHAFSLLHWAAKGGHVAIAEMLLSRGARVNSTNMGDDTSLHLAAAHGHRQIVVKLLSRKADVNATNEHGMTPLHYACFWGYEQIAEDLISCGAAVNVCNKKGMTPLDVCQPMCKNTILEIAQEHGQSPNDRVPFKDTTWKGTKSRTRDATLSRYTGVDVSSLNLITKIAESHSGELWRGKWQGNDIVARILNVQEVTARISRDFQTEFPALRIFAHPNICAVLAAANQPPNLVIISQYMPFGSLYNVLHEQSSVVIDHGQAVRFALDIARGMSYLHSLDPMLLRFYLSSKHVVVDEELTAKLSMADTKFSFQEVGKAYSPAWMSPEALSRAPEDLNIRAADMWSFAILLWELNTREVPFSDLPPMECGMKIALEGLRVHIPPGIARNMNRLMNICMNEDPGRRPNFDQIIPILERMIL
  binding: binds

B3: PAT-6 (protein, UniProt O16785 1-375)
chain: MSTLGRSKTPSRDEPKKPGVFEKLSGTLSRKKKAPEDEHGNQGGAHHATDEDEVLELELEGREALDQSLVPVLARNIWLEEGEIRRYLTKETARDQKLAQVVDLLIYWLNEELADQRIVVRHLQEDLFDGQIIQKLLEKLEQIRIEVPEVSQSEEGQRQKLQIVVQTANRILGQPREQEKWSADLIHQKDFTAIIQLLVLLALHYRAPVRFPDNVVANVVVAQKEHGQVKTHRITEQITTVQTELAPKGTRDAFDTLFDYGPDKLAHVKTSLLAFCNKHLNKINLEVSDLDNQFQDGVFLVLLVGLLEGYFVPLYHFNLQVQSHEEKVKNVQFAFKLMEDTGLEKPRSRVQDIANGDVKSTLRLLHLLFTKYKHI
  binding: binds

B4: UNC-97 (protein, UniProt P50464 1-348)
chain: MDSDHNHINGDLAHGFENMVCVRCNDGFSMQDQMVNSSGQVWHSECFVCAQCFEPFPDGIYFEYEGRKYCEHDFHVLFSPCCGKCNEFIVGRVIKAMNASWHPGCFCCEICNKQLADVGFLRNAGRALCRECNEREKAAGHGRYVCHKCHAMIDDGQHIKFRGDSFHPYHFKCKRCNNELTTASREVNGELYCLRCHDTMGIPICGACHRPIEERVIAALGKHWHVEHFVCSVCEKPFLGHRHYERKGLPYCEQHFHKLFGNLCFKCGDPCCGEVFQALQKTWCVKCFSCSFCDKKLDQKTKFYEFDMKPTCKRCYDRFPTELKKRISESLKDRDVENQRRSMSPGPK
  binding: binds

B5: DEB-1 (protein, UniProt P19826 1-1090)
chain: MPVFHTKTIENILEPVAQQLHYVLAMAEKNATSVDEVRHLGTSMPNLDRFASRSALALSRASSRRSIPEYITPDTVRHVVNDDDCPVCQLMMPRGKDGCVSRLVILHEEANDGNAMPDLTGPVGMVSRAVGNLIQVGYDTCDHSDDRILQQDMPPALQRVEGSSKLLEESSYSLKHDPYSVPARKKLIDGARGILQGTSALLLCFDESEVRKIIRVCRKANDYVAVSEVIESMADLQQFVKDISPVLHDVTNDVNLRQQELTHQVHREILIRCMDSIKVIAPILICSMKTSIELGTPHPRQGHAEAIANRNFMSQRMTEEMNEIIRVLQLTTYDEDEWDADNVTVMRKALSAAKSLLTAALDWLADPHARSGAVGEKAIRRICEYADRISARALPEDAQSIKRSIFEITSFTDELCNLRNNGQPDRENLAAQTARRLKDLVGSQNSSGLMGDALQNAQRHGGANPAHTAAGRLEQALRWLDNPGLDDGGLGLQALRLLTADARKLADRLNPQDRNRLLGLCSDIDRLAAQLADLERRGLGNSPEAHQIRNQLKNALRDLGDFMRRVLTDRVVDDFADITTPLKQFVEAVHADPYDPNREQNFVDKSQRLTDHSQSMTTTARLVASCGPSKSKKTVEAILDTAEKVEQLTPQLVNAGRVRLHNPGSEQHFENIHKQYADALHRLRSHVDDAIDTGEFVRASETAMRRYTNHCEGAINGADAHGLVNNSSQIARLGNRVLMTAQNEADNSEEPSFVSRVRNAADQLHNAIPPMVNNAKQIAQNPHDQYAAQNWRGTNDHLLNSVRAVGDAITGVPMSNGRHSSYQESISRASPYNPPPPSSQVIRSVNASPPTAPIIHNKMIIREDIPAPPRPPPPVELSPPPRPPPPPEYDEEEETRAFWERYPLPQASHQPMLAAAHNLHNELKQWSSQENDIVAAAKRMAILMARLSQLVRGEGGTKKDLINCSKAIADSSEEVTRLAVQLARLCTDIKMRTALLQVSERIPTIATQLKVLSTVKATMLGSANVIGPYGQPVEGSEEDDEAMQQLVHNAQNLMQSVKDVVRAAEAASIKIRTNSGLRLRWLRKPMWSNF
  binding: binds

B6: PAB-1 (protein, UniProt Q9U302 1-646)
chain: MEMNVAAPAAAVAGAAAPQPGQNQTGSSYTMASLYVGDLHPDVNESILFEKFSAAGPVLSIRVCRDNATRLSLGYAYVNFQQPADAERAMDTMNFEALHGKPMRIMWSQRDPAMRRSGAGNIFIKNLDKVIDNKSIYDTFSLFGNILSCKVAIDEDGFSKGYGFVHFETEEAAQNAIQKVNGMLLAGKKVFVGKFQPRAQRNRELGETAKQFTNVYVKNFGDHYNKETLEKLFAKFGNITSCEVMTVEGKSKGFGFVAFANPEEAETAVQALHDSTIEGTDLKLHVCRAQKKSERHAELKKKHEQHKAERMQKYQGVNLYVKNLDETVDDDGLKKQFESYGNITSAKVMTDENGRSKGFGFVCFEKPEEATSAVTEMNSKMVCSKPLYVAIAQRKEDRRAQLASQYMQRLASMRMHGNVPGAAMYNPTQPGPGYYVANPMQQQRNFAGGQQMVRPGGRWGMQNQYPVQNQYMMAQGPGVYQNRMGRPQNQQGGPRGPPQQYNQVAQGGVRMQGPPRTQNPGVQQQNVPRPPQQQQQQRPAPTGPKAPPQPYQAYQQRPQGIVIGGQEPLTSAMLAAAAPQEQKQLLGERIYALIEKLYPGHKDAGKITGMMLEIDNSELIMMLQDSELFRSKVDEAASVLVSAQKQ
  binding: binds

B7: CRT-1 (protein, UniProt P27798 16-395)
chain: EVYFKEEFNDASWEKRWVQSKHKDDFGAFKLSAGKFFDVESRDQGIQTSQDAKFYSRAAKFDKDFSNKGKTLVIQYTVKHEQGIDCGGGYVKVMRADADLGDFHGETPYNVMFGPDICGPTRRVHVILNYKGENKLIKKEITCKSDELTHLYTLILNSDNTYEVKIDGESAQTGSLEEDWDLLPAKKIKDPDAKKPEDWDEREYIDDAEDAKPEDWEKPEHIPDPDAKKPEDWDDEMDGEWEPPMIDNPEYKGEWKPKQIKNPAYKGKWIHPEIENPEYTPDDELYSYESWGAIGFDLWQVKSGTIFDNIIITDSVEEAEAHAAETFDKLKTVEKEKKEKADEETRKAEEEARKKAEEEKEAKKDDDEEEKEEEEGHDEL
  binding: binds

B8: CAV-1 (protein, UniProt Q94051 1-235)
chain: MSTEQDIKTEEQIPLTYAAVAAPTVQTEGEAVVAPEEPKPKKNWFTFGKKKAAPTDETNIEEGGAPGDEPVKEKKEKKCWWSRCQKGEGEQKEENIAIGVDLVNRDANSMNNHVQLNFEDIFGEADSQHSWDCVWRLNHTVFTAVRLFIYRLVSLLALPFTIIFAIFFGLLASINVFIIVPLGKLLSIPGTLLAKLWNWLIHAIFDPIASAVGLIFSNFNIRKYGINQETTAPCV
  binding: binds
